{"source": "the supplement of paper PMC8728848", "binders": {"B1": {"name": "SJCP3842 (Schistosoma japonicum) (protein)", "chain": "MFKMRIINLVNISTVLLLINLLQTKSRLVGKENGFMLTVSIYGAQLSDKMTSVPVSWTIDYEDPEKSAFKKLVTDSCDTFSEYVKSQIPKGSVDGQCTSHIFQRPGSGSGVSISLTLSFIYVDVTQPDTVALKTELEKHFANFVTIHSHKITQAQFRINQKAIVIPTGDKDAIDGSKWKIIAIIALVALAIVVIGGFIYICVK"}}, "experiment_in_all_cases": "glycan array binding signal (z-score within array); higher = stronger binding", "conditions_in_all_cases": "glycan notation: IUPAC condensed, linker removed", "key": {"[1]": {"target": "Gal(b1-4)GlcNAc(b1-2)Man(a1-6)[Man(a1-3)]Man(b1-4)GlcNAc(b1-4)GlcNAc", "in_short": "(§1)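 Glycan array data were curated from 3228 arrays in the Consortium for Functional Glycomics database and kept only where the protein sequence was available. Glycan names were converted to IUPAC-condensed notation, and columns mapping to the same glycan were averaged. The binding signal is a within-array Z-score, averaged across arrays of the same protein sequence at different concentrations or buffers and across linkers. Negative Z-scores can be read as non-binding.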"}, "[2]": {"target": "Gal(b1-4)GlcNAc(b1-2)[Gal(b1-4)GlcNAc(b1-4)]Man(a1-3)[Gal(b1-4)GlcNAc(b1-2)Man(a1-6)]Man(b1-4)GlcNAc(b1-4)GlcNAc", "in_short": "as §1"}, "[3]": {"target": "Gal(b1-4)GlcNAc(b1-2)[Gal(b1-4)GlcNAc(b1-4)]Man(a1-3)[Gal(b1-4)GlcNAc(b1-2)[Gal(b1-4)GlcNAc(b1-6)]Man(a1-6)]Man(b1-4)GlcNAc(b1-4)GlcNAc", "in_short": "as §1"}, "[4]": {"target": "Gal(b1-4)GlcNAc(b1-2)[Gal(b1-4)GlcNAc(b1-4)]Man(a1-3)[GlcNAc(b1-4)][Gal(b1-4)GlcNAc(b1-2)Man(a1-6)]Man(b1-4)GlcNAc(b1-4)GlcNAc", "in_short": "as §1"}, "[5]": {"target": "Gal(b1-4)GlcNAc(b1-2)[Gal(b1-4)GlcNAc(b1-4)]Man(a1-3)[GlcNAc(b1-4)][Gal(b1-4)GlcNAc(b1-2)[Gal(b1-4)GlcNAc(b1-6)]Man(a1-6)]Man(b1-4)GlcNAc(b1-4)GlcNAc", "in_short": "as §1"}, "[6]": {"target": "Gal(b1-4)GlcNAc(b1-2)[Gal(b1-4)GlcNAc(b1-6)]Man(a1-6)[Gal(b1-4)GlcNAc(b1-2)Man(a1-3)]Man(b1-4)GlcNAc(b1-4)GlcNAc", "in_short": "as §1"}, "[7]": {"target": "Gal(b1-4)GlcNAc(b1-2)[Gal(b1-4)GlcNAc(b1-6)]Man(a1-6)[Gal(b1-4)GlcNAc(b1-2)Man(a1-3)]Man(b1-4)GlcNAc(b1-4)[Fuc(a1-6)]GlcNAc", "in_short": "as §1"}, "[8]": {"target": "Gal(b1-4)GlcNAc(b1-2)[Gal(b1-4)GlcNAc(b1-6)]Man(a1-6)[GlcNAc(b1-4)][Gal(b1-4)GlcNAc(b1-2)Man(a1-3)]Man(b1-4)GlcNAc(b1-4)GlcNAc", "in_short": "as §1"}, "[9]": {"target": "Gal(b1-4)GlcNAc(b1-2)[Gal(b1-4)GlcNAc(b1-6)]Man(a1-6)[GlcNAc(b1-4)][Gal(b1-4)GlcNAc(b1-2)[Gal(b1-4)GlcNAc(b1-4)]Man(a1-3)]Man(b1-4)GlcNAc(b1-4)[Fuc(a1-6)]GlcNAc", "in_short": "as §1"}, "[10]": {"target": "Gal(b1-4)GlcNAc(b1-3)Gal(b1-3)GalNAc", "in_short": "as §1"}, "[11]": {"target": "Gal(b1-4)GlcNAc(b1-3)Gal(b1-3)GlcNAc", "in_short": "as §1"}, "[12]": {"target": "Gal(b1-4)GlcNAc(b1-3)Gal(b1-4)Glc", "in_short": "as §1"}, "[13]": {"target": "Gal(b1-4)GlcNAc(b1-3)Gal(b1-4)GlcNAc", "in_short": "as §1"}, "[14]": {"target": "Gal(b1-4)GlcNAc(b1-3)Gal(b1-4)GlcNAc(b1-2)Man(a1-3)[Gal(b1-4)GlcNAc(b1-3)Gal(b1-4)GlcNAc(b1-2)Man(a1-6)]Man(b1-4)GlcNAc(b1-4)GlcNAc", "in_short": "as §1"}, "[15]": {"target": "Gal(b1-4)GlcNAc(b1-3)Gal(b1-4)GlcNAc(b1-2)Man(a1-3)[Gal(b1-4)GlcNAc(b1-3)Gal(b1-4)GlcNAc(b1-2)Man(a1-6)]Man(b1-4)GlcNAc(b1-4)[Fuc(a1-6)]GlcNAc", "in_short": "as §1"}, "[16]": {"target": "Gal(b1-4)GlcNAc(b1-3)Gal(b1-4)GlcNAc(b1-2)[Gal(b1-4)GlcNAc(b1-3)Gal(b1-4)GlcNAc(b1-6)]Man(a1-6)[Gal(b1-4)GlcNAc(b1-3)Gal(b1-4)GlcNAc(b1-2)Man(a1-3)]Man(b1-4)GlcNAc(b1-4)GlcNAc", "in_short": "as §1"}, "[17]": {"target": "Gal(b1-4)GlcNAc(b1-3)Gal(b1-4)GlcNAc(b1-2)[Gal(b1-4)GlcNAc(b1-3)Gal(b1-4)GlcNAc(b1-6)]Man(a1-6)[Gal(b1-4)GlcNAc(b1-3)Gal(b1-4)GlcNAc(b1-2)Man(a1-3)]Man(b1-4)GlcNAc(b1-4)[Fuc(a1-6)]GlcNAc", "in_short": "as §1"}, "[18]": {"target": "Gal(b1-4)GlcNAc(b1-3)Gal(b1-4)GlcNAc(b1-3)Gal(b1-4)GlcNAc", "in_short": "as §1"}, "[19]": {"target": "Gal(b1-4)GlcNAc(b1-3)Gal(b1-4)GlcNAc(b1-3)Gal(b1-4)GlcNAc(b1-2)Man(a1-3)[Gal(b1-4)GlcNAc(b1-3)Gal(b1-4)GlcNAc(b1-3)Gal(b1-4)GlcNAc(b1-2)Man(a1-6)]Man(b1-4)GlcNAc(b1-4)GlcNAc", "in_short": "as §1"}, "[20]": {"target": "Gal(b1-4)GlcNAc(b1-3)Gal(b1-4)GlcNAc(b1-3)Gal(b1-4)GlcNAc(b1-2)Man(a1-3)[Gal(b1-4)GlcNAc(b1-3)Gal(b1-4)GlcNAc(b1-3)Gal(b1-4)GlcNAc(b1-2)Man(a1-6)]Man(b1-4)GlcNAc(b1-4)[Fuc(a1-6)]GlcNAc", "in_short": "as §1"}, "[21]": {"target": "Gal(b1-4)GlcNAc(b1-3)Gal(b1-4)GlcNAc(b1-3)Gal(b1-4)GlcNAc(b1-2)[Gal(b1-4)GlcNAc(b1-3)Gal(b1-4)GlcNAc(b1-3)Gal(b1-4)GlcNAc(b1-6)]Man(a1-6)[Gal(b1-4)GlcNAc(b1-3)Gal(b1-4)GlcNAc(b1-3)Gal(b1-4)GlcNAc(b1-2)Man(a1-3)]Man(b1-4)GlcNAc(b1-4)[Fuc(a1-6)]GlcNAc", "in_short": "as §1"}, "[22]": {"target": "Gal(b1-4)GlcNAc(b1-3)Gal(b1-4)GlcNAc(b1-3)Gal(b1-4)GlcNAc(b1-3)Gal(b1-4)GlcNAc(b1-2)Man(a1-3)[Gal(b1-4)GlcNAc(b1-3)Gal(b1-4)GlcNAc(b1-3)Gal(b1-4)GlcNAc(b1-3)Gal(b1-4)GlcNAc(b1-2)Man(a1-6)]Man(b1-4)GlcNAc(b1-4)GlcNAc", "in_short": "as §1"}}, "note": "Some of the results follow."}
{"binder": "B1", "values": [{"measurement": "glycan array binding signal (z-score)", "setting": "[1]", "value": 0.841}, {"measurement": "glycan array binding signal (z-score)", "setting": "[2]", "value": -1.14}, {"measurement": "glycan array binding signal (z-score)", "setting": "[3]", "value": -0.482}, {"measurement": "glycan array binding signal (z-score)", "setting": "[4]", "value": -0.392}, {"measurement": "glycan array binding signal (z-score)", "setting": "[5]", "value": 0.354}, {"measurement": "glycan array binding signal (z-score)", "setting": "[6]", "value": -0.486}, {"measurement": "glycan array binding signal (z-score)", "setting": "[7]", "value": -0.911}, {"measurement": "glycan array binding signal (z-score)", "setting": "[8]", "value": 0.144}, {"measurement": "glycan array binding signal (z-score)", "setting": "[9]", "value": -0.296}, {"measurement": "glycan array binding signal (z-score)", "setting": "[10]", "value": -0.581}, {"measurement": "glycan array binding signal (z-score)", "setting": "[11]", "value": 0.836}, {"measurement": "glycan array binding signal (z-score)", "setting": "[12]", "value": 0.456}, {"measurement": "glycan array binding signal (z-score)", "setting": "[13]", "value": -0.05}, {"measurement": "glycan array binding signal (z-score)", "setting": "[14]", "value": 1.21}, {"measurement": "glycan array binding signal (z-score)", "setting": "[15]", "value": 1.02}, {"measurement": "glycan array binding signal (z-score)", "setting": "[16]", "value": 2}, {"measurement": "glycan array binding signal (z-score)", "setting": "[17]", "value": -0.293}, {"measurement": "glycan array binding signal (z-score)", "setting": "[18]", "value": 0.515}, {"measurement": "glycan array binding signal (z-score)", "setting": "[19]", "value": 0.755}, {"measurement": "glycan array binding signal (z-score)", "setting": "[20]", "value": 1.55}, {"measurement": "glycan array binding signal (z-score)", "setting": "[21]", "value": 0.793}, {"measurement": "glycan array binding signal (z-score)", "setting": "[22]", "value": -1.19}]}
